Measured values from patent US8080377B2, “Method for confirming the exposure on chrysene” (Korea Institute of Science and Technology, priority 2008, dated 2011).
The source gives many values for each of these; only a part stands here.

System: HepG2 cells
Experiment: 44 k whole human genome oligo microarray gene expression, cells treated with chrysene at IC20 for 48 hours (Cy5) vs untreated control (Cy3)
Assay type: cell-based
Method: HepG2 cells were distributed on a 100 mm dish at the concentration of 6×10^6 cell/ml, to which chrysene was treated for 48 hours at the concentration that was determined in Example <1-2>. Total RNA was extracted from the cells using trizol reagent (Invitrogen life technologies, USA) according to the manufacturer's instruction and the extracted RNA was purified by using RNeasy mini kit (Qiagen, USA). The genomic DNA was eliminated during the purification of RNA using RNase-free DNase set (Qiagen, USA). The total RNA was quantified by spectrophotometer and purity was measured by Agilent 2100 Bioanalyzer (Agilent Technologies, USA) and agarose gel-electrophoration.
For oligo-microarray analysis, cDNA was synthesized using the total RNA extracted from the experimental group treated with chrysene obtained in Example <2-1>. 30 μg of the total RNA and 2 μg (1 μg/μl) of oligo (dT) primer were mixed, followed by reaction for 10 minutes at 65° C. Then, the reaction mixture was put in ice, followed by annealing. Reagents were mixed as shown in Table 1 for reverse transcription of the RNA.
The total RNA extracted from the control HepG2 cell line was labeled with Cy3-dUTP (green), while the RNA extracted from the experimental HepG2 cell line treated with chrysene was labeled with Cy5-dUTP (red). At this time, the two samples were mixed and purified by Microcon YM-30 column (Millipore, USA).
Hybridization and washing were performed according to the instruction of GeneoCheck Co., Ltd. Hybridization was performed in a 62° C. oven for 12 hours. At this time, 44 k whole human genome oligo microarray (Agilent, USA) was used as a DNA microarray chip. After washing (with 2×SSC/0.1% SDS for 2 minutes, with 1×SSC for 3 minutes, with 0.2×SSC for 2 minutes), the slide was centrifuged at 800 rpm for 3 minutes and dried.
Scanning of the hybridized images on the slide was performed by using Genepix 4000B (Axon Instruments, USA). Fluorescence images of the chip washed to eliminate non-binding genes were obtained by laser fluorescence scanner. At this time, green fluorescent images indicated the activity of the gene expressed in the control, whereas red fluorescent images indicated the activity of the gene expressed specifically in the experimental group. […] The scanned images were analyzed by GenePix 4.1 software (Axon Instruments, USA) to calculate the gene expression rate. Based on the obtained data, marker genes for chrysene were selected (see FIG. 2).

## c1ccc2c(c1)ccc1c3ccccc3ccc21 [chrysene]
KITLG (NM_000899)
  Ratio of intermediate value: 3.752
LAMA3 (NM_198129)
  Ratio of intermediate value: 6.314
LAMP3 (BC032940)
  Ratio of intermediate value: 2.729
LEFTY1 (NM_020997)
  Ratio of intermediate value: 4.012
LGALS1 (NM_002305)
  Ratio of intermediate value: 2.686
LGALS7 (CN478604)
  Ratio of intermediate value: 4.216
LHX6 (AK126982)
  Ratio of intermediate value: 3.754
LOC283130 (AL050210)
  Ratio of intermediate value: 3.265
LOC343521 (NM_001013632)
  Ratio of intermediate value: 5.344
LOXL1 (NM_005576)
  Ratio of intermediate value: 3.992
LRMP (NM_006152)
  Ratio of intermediate value: 3.453
LRP10 (NM_014045)
  Ratio of intermediate value: 4.617
LTB4DH (AK091948)
  Ratio of intermediate value: 2.915
MAP3K14 (NM_003954)
  Ratio of intermediate value: 2.642
MB (BF670653)
  Ratio of intermediate value: 3.908
MDM2 (M92424)
  Ratio of intermediate value: 4.057
MGC4734 (AK091940)
  Ratio of intermediate value: 3.644
MGC13186 (BX537541)
  Ratio of intermediate value: 3.712
MGC17986 (BC041578)
  Ratio of intermediate value: 3.167
MICAL-L1 (AB051455)
  Ratio of intermediate value: 3.221
MICAL-L2 (AK074068)
  Ratio of intermediate value: 3.122
MLPH (NM_024101)
  Ratio of intermediate value: 3.369
MTA2 (NM_004739)
  Ratio of intermediate value: 2.439
MYO6 (NM_004999)
  Ratio of intermediate value: 3.021
NIFUN (NM_014301)
  Ratio of intermediate value: 3.923
NP (AK126154)
  Ratio of intermediate value: 2.252
NR0B2 (BC030207)
  Ratio of intermediate value: 2.924
NRP1 (NM_003873)
  Ratio of intermediate value: 2.102
OSBPL3 (NM_145323)
  Ratio of intermediate value: 2.684
OSMR (BC063468)
  Ratio of intermediate value: 2.653
P2RX1 (BC027949)
  Ratio of intermediate value: 2.094
P4HA2 (NM_004199)
  Ratio of intermediate value: 4.764
PCNA (BM462208)
  Ratio of intermediate value: 5.947
PCNP (BX647886)
  Ratio of intermediate value: 2.133
PDCD6 (AB033060)
  Ratio of intermediate value: 5.709
PHLDA1 (BC047362)
  Ratio of intermediate value: 2.031
PHLDA2 (NM_003311)
  Ratio of intermediate value: 3.66
PLAC2 (BC036545)
  Ratio of intermediate value: 4.74
PLCD1 (BX647927)
  Ratio of intermediate value: 2.791
PLTP (AK097009)
  Ratio of intermediate value: 6.838
PML (NM_033245)
  Ratio of intermediate value: 2.031
POLH (AB024313)
  Ratio of intermediate value: 3.515
PP2135 (NM_022153)
  Ratio of intermediate value: 6.334
PPP2CB (NM_001009552)
  Ratio of intermediate value: 2.132
PPP3CB (NM_021132)
  Ratio of intermediate value: 2.196
PRF1 (BC063043)
  Ratio of intermediate value: 2.301
PRKAB1 (BC001823)
  Ratio of intermediate value: 2.07
PTTG1 (BU675073)
  Ratio of intermediate value: 2.179
PYCARD (NM_013258)
  Ratio of intermediate value: 2.705
RAD51C (BC073161)
  Ratio of intermediate value: 2.093
RARA (BC038432)
  Ratio of intermediate value: 2.871
RASAL1 (AB208935)
  Ratio of intermediate value: 13.23
RB1 (L41870)
  Ratio of intermediate value: 2.431
RBP3 (NM_002900)
  Ratio of intermediate value: 2.882
REC8L1 (AL832973)
  Ratio of intermediate value: 2.05
RGC32 (AK095079)
  Ratio of intermediate value: 3.294
RHOC (AK094474)
  Ratio of intermediate value: 4.228
RPS27L (BF983391)
  Ratio of intermediate value: 4.896
S100A11 (BQ683841)
  Ratio of intermediate value: 6.064
S100A13 (NM_005979)
  Ratio of intermediate value: 2.388
S100A16 (NM_080388)
  Ratio of intermediate value: 2.608
SESN1 (AF033122)
  Ratio of intermediate value: 3.728
SFRP4 (AF026692)
  Ratio of intermediate value: 2.098
SH2D2A (NM_003975)
  Ratio of intermediate value: 6.609
SH3BGRL3 (NM_031286)
  Ratio of intermediate value: 2.915
SHBG (CD013956)
  Ratio of intermediate value: 3.686
SLC4A11 (AF336127)
  Ratio of intermediate value: 4.117
SLC6A12 (AK125026)
  Ratio of intermediate value: 3.756
SLC12A4 (NM_005072)
  Ratio of intermediate value: 2.184
SLC16A5 (AK092512)
  Ratio of intermediate value: 2.578
SLC22A2 (AB075951)
  Ratio of intermediate value: 3.984
SLC35A4 (AF445025)
  Ratio of intermediate value: 3.019
SLC37A2 (AK074100)
  Ratio of intermediate value: 8.472
SLC40A1 (NM_014585)
  Ratio of intermediate value: 4.61
SPP1 (NM_000582)
  Ratio of intermediate value: 3.007
SQSTM1 (AK096241)
  Ratio of intermediate value: 2.016
SSB1 (NM_025106)
  Ratio of intermediate value: 2.523
SSR1 (CR936719)
  Ratio of intermediate value: 2.559
STK17A (BX537586)
  Ratio of intermediate value: 2.174
STX6 (NM_005819)
  Ratio of intermediate value: 3.089
SYTL1 (NM_032872)
  Ratio of intermediate value: 4.931
TALDO1 (AK130060)
  Ratio of intermediate value: 2.107
TBC1D8 (AB024057)
  Ratio of intermediate value: 2.535
TDH (AK057762)
  Ratio of intermediate value: 12.35
TEP1 (U86136)
  Ratio of intermediate value: 5.355
TGM4 (BC007003)
  Ratio of intermediate value: 24.07
TIMP1 (BM913048)
  Ratio of intermediate value: 14.52
TM4SF5 (W84524)
  Ratio of intermediate value: 1.768
TMSB10 (BQ276852)
  Ratio of intermediate value: 1.864
TNFAIP8 (AK097284)
  Ratio of intermediate value: 3.301
TNFRSF10B (NM_003842)
  Ratio of intermediate value: 2.165
TNFRSF14 (NM_003820)
  Ratio of intermediate value: 4.242
TP53AP1 (BC068535)
  Ratio of intermediate value: 3.847
TP53INP1 (AK125880)
  Ratio of intermediate value: 4.731
TRIM38 (CR936707)
  Ratio of intermediate value: 3.756
TSPAN1 (NM_005727)
  Ratio of intermediate value: 8.455
TUBA1 (AK054731)
  Ratio of intermediate value: 4.193
TUBA4 (AK024002)
  Ratio of intermediate value: 7.428
TUBB6 (AK092677)
  Ratio of intermediate value: 6.458
TWIST1 (NM_000474)
  Ratio of intermediate value: 2.962
TXN (NM_003329)
  Ratio of intermediate value: 2.325
TXNRD1 (NM_003330)
  Ratio of intermediate value: 2.811
TYMS (NM_001012716)
  Ratio of intermediate value: 3.124
UCP2 (AK025742)
  Ratio of intermediate value: 3.187
UGT2B7 (J05428)
  Ratio of intermediate value: 2.292
UNC5C (AF055634)
  Ratio of intermediate value: 2.645
UNQ2541 (BC035124)
  Ratio of intermediate value: 11.28
UNQ6077 (XM_496436)
  Ratio of intermediate value: 2.011
VTI1B (BC042390)
  Ratio of intermediate value: 4.486
ZNF337 (BC034569)
  Ratio of intermediate value: 4.083
ZNF385 (AY461717)
  Ratio of intermediate value: 20.23
ZSCAN4 (AK092424)
  Ratio of intermediate value: 17.63
